From the supplement of paper PMC10849652
Some of the results follow.

Chains of the proteins cited; added tags and fusions are not shown. Lines headed by an entry give the natural chain unless they say otherwise; changes in a name come on top.
UniProt Q86T82: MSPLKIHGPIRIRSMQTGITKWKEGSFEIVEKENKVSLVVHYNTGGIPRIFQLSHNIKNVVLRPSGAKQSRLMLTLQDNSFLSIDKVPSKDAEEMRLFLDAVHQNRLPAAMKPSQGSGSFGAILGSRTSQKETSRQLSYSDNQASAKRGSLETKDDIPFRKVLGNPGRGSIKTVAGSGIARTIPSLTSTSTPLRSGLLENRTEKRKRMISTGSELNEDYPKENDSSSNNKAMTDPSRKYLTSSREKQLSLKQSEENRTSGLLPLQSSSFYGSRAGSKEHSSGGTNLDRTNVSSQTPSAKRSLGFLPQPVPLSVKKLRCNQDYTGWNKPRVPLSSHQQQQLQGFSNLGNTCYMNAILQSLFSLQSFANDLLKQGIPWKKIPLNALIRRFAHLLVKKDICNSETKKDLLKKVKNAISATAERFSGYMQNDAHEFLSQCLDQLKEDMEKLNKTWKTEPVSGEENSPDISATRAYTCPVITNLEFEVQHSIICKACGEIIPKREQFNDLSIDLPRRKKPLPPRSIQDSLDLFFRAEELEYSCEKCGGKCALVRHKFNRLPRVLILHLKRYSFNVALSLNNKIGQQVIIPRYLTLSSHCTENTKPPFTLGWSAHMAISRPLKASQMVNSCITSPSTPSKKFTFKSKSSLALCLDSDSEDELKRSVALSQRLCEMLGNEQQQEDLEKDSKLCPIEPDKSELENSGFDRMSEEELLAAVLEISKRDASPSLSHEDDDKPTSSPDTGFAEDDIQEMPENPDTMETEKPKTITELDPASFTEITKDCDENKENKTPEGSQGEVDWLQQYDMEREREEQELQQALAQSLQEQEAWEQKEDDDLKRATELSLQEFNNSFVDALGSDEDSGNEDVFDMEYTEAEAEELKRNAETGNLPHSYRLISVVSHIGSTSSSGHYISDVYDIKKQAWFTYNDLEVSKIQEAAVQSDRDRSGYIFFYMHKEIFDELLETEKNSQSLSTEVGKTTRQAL
UniProt Q9Y3A2: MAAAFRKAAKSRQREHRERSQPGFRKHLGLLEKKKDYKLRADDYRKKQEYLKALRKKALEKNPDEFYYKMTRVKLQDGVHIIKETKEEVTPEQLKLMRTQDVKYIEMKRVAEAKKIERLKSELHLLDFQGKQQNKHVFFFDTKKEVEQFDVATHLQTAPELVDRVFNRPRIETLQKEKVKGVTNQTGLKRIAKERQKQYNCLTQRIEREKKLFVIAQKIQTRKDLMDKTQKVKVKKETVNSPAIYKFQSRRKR
UniProt Q8TCY9: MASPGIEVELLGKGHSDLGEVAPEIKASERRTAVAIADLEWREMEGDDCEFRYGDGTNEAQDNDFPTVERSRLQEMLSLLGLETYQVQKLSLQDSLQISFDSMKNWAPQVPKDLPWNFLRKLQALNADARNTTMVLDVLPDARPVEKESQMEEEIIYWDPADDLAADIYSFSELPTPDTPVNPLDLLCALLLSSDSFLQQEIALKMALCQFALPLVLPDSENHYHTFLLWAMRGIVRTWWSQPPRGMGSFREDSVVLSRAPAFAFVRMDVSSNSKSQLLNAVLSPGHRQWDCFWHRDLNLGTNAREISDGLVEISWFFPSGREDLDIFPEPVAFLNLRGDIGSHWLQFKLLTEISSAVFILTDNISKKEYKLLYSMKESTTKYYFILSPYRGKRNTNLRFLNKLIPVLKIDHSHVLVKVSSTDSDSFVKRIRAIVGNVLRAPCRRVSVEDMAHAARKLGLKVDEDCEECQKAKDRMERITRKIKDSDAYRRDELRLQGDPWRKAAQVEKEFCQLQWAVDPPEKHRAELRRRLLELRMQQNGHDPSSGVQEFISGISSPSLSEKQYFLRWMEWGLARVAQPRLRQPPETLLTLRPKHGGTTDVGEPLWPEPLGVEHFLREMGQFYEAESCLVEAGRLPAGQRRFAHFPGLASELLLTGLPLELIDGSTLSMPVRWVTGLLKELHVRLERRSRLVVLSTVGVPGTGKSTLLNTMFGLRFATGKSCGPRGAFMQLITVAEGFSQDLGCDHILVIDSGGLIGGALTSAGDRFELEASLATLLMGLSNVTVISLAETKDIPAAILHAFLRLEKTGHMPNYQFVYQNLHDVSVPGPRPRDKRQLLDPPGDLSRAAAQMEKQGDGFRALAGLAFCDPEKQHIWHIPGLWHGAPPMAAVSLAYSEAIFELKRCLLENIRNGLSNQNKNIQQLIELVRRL
UniProt P55851: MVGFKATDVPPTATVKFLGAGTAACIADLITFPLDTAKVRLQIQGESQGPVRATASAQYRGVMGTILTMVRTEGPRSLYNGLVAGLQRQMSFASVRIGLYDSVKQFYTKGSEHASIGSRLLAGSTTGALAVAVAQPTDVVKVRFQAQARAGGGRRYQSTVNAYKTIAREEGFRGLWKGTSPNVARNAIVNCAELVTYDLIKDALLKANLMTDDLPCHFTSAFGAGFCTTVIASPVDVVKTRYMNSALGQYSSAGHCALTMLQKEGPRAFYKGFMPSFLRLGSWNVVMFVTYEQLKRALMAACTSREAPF
UniProt A6NNY8: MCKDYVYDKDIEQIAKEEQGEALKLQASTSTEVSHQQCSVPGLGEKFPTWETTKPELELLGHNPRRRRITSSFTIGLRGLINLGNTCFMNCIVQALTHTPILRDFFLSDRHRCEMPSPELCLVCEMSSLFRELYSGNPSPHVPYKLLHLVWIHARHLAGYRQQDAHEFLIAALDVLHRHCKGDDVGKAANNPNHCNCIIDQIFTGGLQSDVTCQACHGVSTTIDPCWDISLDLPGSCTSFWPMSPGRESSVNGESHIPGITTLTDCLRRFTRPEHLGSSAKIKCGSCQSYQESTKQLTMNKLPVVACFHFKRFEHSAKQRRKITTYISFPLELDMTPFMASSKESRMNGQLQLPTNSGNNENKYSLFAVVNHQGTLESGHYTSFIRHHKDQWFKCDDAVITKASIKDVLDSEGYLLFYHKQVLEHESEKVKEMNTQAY
UniProt Q8TEY7: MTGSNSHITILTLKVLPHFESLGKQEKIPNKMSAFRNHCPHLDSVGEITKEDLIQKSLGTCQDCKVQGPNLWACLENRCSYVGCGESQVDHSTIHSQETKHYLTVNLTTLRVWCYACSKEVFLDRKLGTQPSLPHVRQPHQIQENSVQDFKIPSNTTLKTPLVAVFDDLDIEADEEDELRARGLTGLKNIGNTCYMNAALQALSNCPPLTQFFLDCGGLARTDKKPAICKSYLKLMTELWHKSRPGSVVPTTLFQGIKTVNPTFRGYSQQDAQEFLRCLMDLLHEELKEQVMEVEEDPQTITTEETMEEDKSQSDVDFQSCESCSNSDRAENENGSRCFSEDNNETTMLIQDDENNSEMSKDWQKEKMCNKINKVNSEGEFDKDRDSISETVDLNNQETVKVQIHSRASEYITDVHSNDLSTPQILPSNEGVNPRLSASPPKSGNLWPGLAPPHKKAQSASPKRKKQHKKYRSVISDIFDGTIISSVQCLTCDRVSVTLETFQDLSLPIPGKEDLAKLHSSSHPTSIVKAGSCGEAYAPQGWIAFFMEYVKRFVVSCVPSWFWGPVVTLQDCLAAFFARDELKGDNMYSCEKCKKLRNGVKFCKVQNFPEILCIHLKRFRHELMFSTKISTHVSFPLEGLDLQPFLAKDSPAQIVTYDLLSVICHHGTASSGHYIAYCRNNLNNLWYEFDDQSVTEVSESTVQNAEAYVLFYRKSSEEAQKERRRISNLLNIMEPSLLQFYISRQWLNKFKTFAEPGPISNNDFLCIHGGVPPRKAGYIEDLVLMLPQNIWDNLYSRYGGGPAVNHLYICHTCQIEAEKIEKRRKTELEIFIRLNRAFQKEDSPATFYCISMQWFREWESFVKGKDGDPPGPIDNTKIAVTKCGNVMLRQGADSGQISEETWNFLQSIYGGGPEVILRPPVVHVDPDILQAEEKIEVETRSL
UniProt Q9BRU9: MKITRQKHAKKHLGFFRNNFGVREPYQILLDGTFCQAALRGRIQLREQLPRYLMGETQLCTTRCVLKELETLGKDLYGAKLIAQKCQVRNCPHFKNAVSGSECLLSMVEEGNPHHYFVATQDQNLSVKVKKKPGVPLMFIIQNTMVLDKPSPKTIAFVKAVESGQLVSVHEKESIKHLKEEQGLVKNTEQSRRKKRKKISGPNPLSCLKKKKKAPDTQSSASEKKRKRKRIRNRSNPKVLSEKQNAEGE
UniProt Q8NB14: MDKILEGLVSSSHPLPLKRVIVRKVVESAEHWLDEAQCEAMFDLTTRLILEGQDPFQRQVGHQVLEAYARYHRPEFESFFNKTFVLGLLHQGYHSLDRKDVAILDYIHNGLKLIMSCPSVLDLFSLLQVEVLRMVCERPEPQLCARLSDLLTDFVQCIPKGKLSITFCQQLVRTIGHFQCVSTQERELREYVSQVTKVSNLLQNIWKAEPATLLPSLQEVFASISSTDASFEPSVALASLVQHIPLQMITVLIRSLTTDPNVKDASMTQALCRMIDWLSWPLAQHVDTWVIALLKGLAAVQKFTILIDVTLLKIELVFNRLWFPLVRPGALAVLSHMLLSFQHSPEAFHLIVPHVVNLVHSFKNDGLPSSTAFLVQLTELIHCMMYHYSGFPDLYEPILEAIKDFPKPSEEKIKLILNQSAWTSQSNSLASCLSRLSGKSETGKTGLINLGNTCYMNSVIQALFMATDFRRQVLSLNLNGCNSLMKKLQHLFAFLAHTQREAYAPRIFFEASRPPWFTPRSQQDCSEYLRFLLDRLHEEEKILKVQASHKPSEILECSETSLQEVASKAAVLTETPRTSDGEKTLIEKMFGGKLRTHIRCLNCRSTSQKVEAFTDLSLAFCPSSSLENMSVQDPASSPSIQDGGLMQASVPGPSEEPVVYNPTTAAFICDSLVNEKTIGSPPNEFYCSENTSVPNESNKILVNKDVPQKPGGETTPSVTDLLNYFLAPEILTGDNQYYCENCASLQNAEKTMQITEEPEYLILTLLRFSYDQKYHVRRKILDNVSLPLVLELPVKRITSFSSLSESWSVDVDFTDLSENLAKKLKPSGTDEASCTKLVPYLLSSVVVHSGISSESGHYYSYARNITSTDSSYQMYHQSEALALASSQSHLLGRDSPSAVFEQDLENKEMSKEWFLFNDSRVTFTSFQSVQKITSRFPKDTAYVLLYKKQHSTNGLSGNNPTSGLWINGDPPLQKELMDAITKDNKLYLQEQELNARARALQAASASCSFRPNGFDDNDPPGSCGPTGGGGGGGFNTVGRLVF
UniProt Q9H867: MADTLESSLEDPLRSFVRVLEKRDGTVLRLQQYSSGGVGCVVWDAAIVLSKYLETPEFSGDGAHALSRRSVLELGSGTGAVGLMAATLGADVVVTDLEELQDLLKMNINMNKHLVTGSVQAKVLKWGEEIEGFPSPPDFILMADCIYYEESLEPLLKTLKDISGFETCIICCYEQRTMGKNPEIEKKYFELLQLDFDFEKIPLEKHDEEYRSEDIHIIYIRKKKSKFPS

Columns and labels:
Experiment in all cases: log2 fold change, soluble protein after heating vs DMSO (PISA); higher = thermal stabilisation; K562 lysate, 10 uM; active = over 0.2 and 3.5 SD of the protein, either way, in both replicates (recomputed)
[1] = compound: C/C(=N\NC(=O)C1=CC(=CC=C1)S(=O)(=O)N2CCOCC2)/C3=C(C=CC(=C3)Cl)O
Summary of the method: (§1)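 Thermal stability, expressed as log-two fold change relative to solvent controls, is given from duplicates. Crude K562 extract in PBS pH 7.4 with 1 mM MgCl2, at 1 mg/mL protein, was treated with 10 μM compound for 30 min and heated in aliquots for 3 min across 48°C-58°C. After pooling, adjustment to 0.5% NP-40 at 4°C and centrifugation at 21,000xg for 90 min, supernatant protein was measured by TMTpro 16plex LC-MS/MS with channel sums equalised.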

[2] = compound: C1=CC2=C(C=CC(=C2)/C=C\3/C(=O)NC(=NCC4=CC=CS4)S3)N=C1
Summary of the method: as §1

[3] = compound: C1=CC=C2C(=C1)C3=NNC4=CC=CC(=C43)C2=O
Summary of the method: as §1

[4] = compound: C1CCN(C1)C(=O)NC2=CC=CC(=C2)NC3=NC=C(C(=N3)NCCC4=CN=CN4)Br
Summary of the method: as §1

[5] = compound: C1CN(CCC1(CC2=CC=C(C=C2)Cl)N)C3=NC=NC4=C3C=CN4
Summary of the method: as §1

[6] = compound: CC1=C(C=C(C=C1)NC(=O)C2=CC(=CC=C2)C(C)(C)C#N)NC3=CC4=C(C=C3)N=CN(C4=O)C
Summary of the method: as §1

[7] = compound: C1=CC2=NC=CN=C2C=C1/C=C/3\C(=O)NC(=O)S3
Summary of the method: as §1

[8] = compound: C=CC(=O)N1CCC[C@@H](n2nc(-c3ccc(Oc4ccccc4)cc3)c3c(N)ncnc32)C1 [ibrutinib]
Summary of the method: as §1

[9] = compound: CC(=O)c1cnc2ccc(-c3cc(Cl)c(O)c(Cl)c3)nc2c1N[C@H]1CC[C@H](CN(C)C)CC1
Summary of the method: as §1

[10] = compound: CC1=C(C(CC(=O)N1)C2=CC=C(C=C2)C(F)(F)F)C(=O)NC3=C(C=C4C(=C3)C=NN4)F
Summary of the method: as §1

[11] = compound: CC1=C(C2=C(C=C1)C(=O)C3=CC=CC=C3N2CCCN)C
Summary of the method: as §1

[12] = compound: CC1=CC=C(C=C1)SC2=C3C=C(SC3=CN=C2)C(=O)N
Summary of the method: as §1

[13] = compound: C#Cc1cccc(Nc2ncnc3cc(OCCOC)c(OCCOC)cc23)c1 [erlotinib]
Summary of the method: as §1

[14] = compound: C1=CC(=CC=C1C2=NC3=C(N2)C=C(C=C3)C(=O)N)OC4=CC=C(C=C4)Cl
Summary of the method: as §1

[15] = compound: C1=CC=C(C=C1)C2=NC(=C(N2)C3=CC=NC=C3)C4=CC(=C(C=C4)Cl)O
Summary of the method: as §1

[16] = compound: C1COCCN1CCN2C3=CC=CC=C3N=C2NC(=O)C4=CC(=CC=C4)[N+](=O)[O-] [IRAK-1-4 Inhibitor I]
Summary of the method: as §1

[17] = compound: CC(C)(C)Cn1c(N)nc2ccc(-c3[nH]c(C(C)(C)C)nc3-c3ccc(F)cc3)nc21 [ralimetinib]
Summary of the method: as §1

[18] = compound: CC(C)(O)CC(=O)NCCn1ccc2ncnc(Nc3ccc(Oc4cccc(C(F)(F)F)c4)c(Cl)c3)c21
Summary of the method: as §1

[19] = compound: CC(C)C1=C2N=C(C=C(N2N=C1)NCC3=CC=CC=C3)NCCCCCCN
Summary of the method: as §1

[20] = compound: CC1=C(C=C(C=C1)NC(=O)C2=CC(=CC=C2)N(C)C)NC(=O)C3=CC=C(C=C3)O
Summary of the method: as §1

Row | Target | log2 fold change [1] | log2 fold change [2] | log2 fold change [3] | log2 fold change [4] | log2 fold change [5] | log2 fold change [6] | log2 fold change [7] | log2 fold change [8] | log2 fold change [9] | log2 fold change [10] | log2 fold change [11] | log2 fold change [12] | log2 fold change [13] | log2 fold change [14] | log2 fold change [15] | log2 fold change [16] | log2 fold change [17] | log2 fold change [18] | log2 fold change [19] | log2 fold change [20]
1 | USP37 (UniProt Q86T82) | inactive: 0.229 | inactive: 0.084 | inactive: -0.019 | inactive: -0.008 | inactive: -0.199 | inactive: 0.038 | – | – | – | – | – | – | – | – | – | – | – | – | – | –
2 | UTP11 (UniProt Q9Y3A2) | inactive: -0.005 | inactive: -0.132 | inactive: 0.059 | inactive: -0.192 | inactive: -0.118 | inactive: -0.081 | inactive: -0.148 | inactive: -0.061 | inactive: 0.018 | inactive: -0.055 | inactive: 0.004 | inactive: 0.033 | – | – | – | – | – | – | – | –
3 | UNC119 (UniProt Q13432) | – | – | – | – | – | inactive: 0.037 | – | – | – | inactive: -0.058 | inactive: 0.003 | – | inactive: -0.041 | inactive: 0.015 | inactive: -0.059 | inactive: 0.077 | inactive: -0.001 | inactive: -0.081 | inactive: 0.183 | inactive: 0.049
4 | URGCP (UniProt Q8TCY9) | inactive: -0.024 | inactive: -0.075 | inactive: 0.051 | – | – | – | inactive: -0.01 | inactive: 0.081 | – | inactive: -0.05 | inactive: 0.008 | – | – | – | inactive: -0.038 | inactive: 0.022 | inactive: -0.07 | active: -0.515 | – | inactive: -0.042
5 | VASN (UniProt Q6EMK4) | – | – | – | inactive: -0.277 | inactive: -0.01 | – | – | – | – | – | inactive: -0.255 | – | active: -0.644 | inactive: 0.071 | inactive: -0.191 | inactive: 0.222 | inactive: 0.332 | inactive: 0.172 | inactive: -0.004 | inactive: -0.295
6 | UCP2 (UniProt P55851) | inactive: 0.217 | inactive: -0.114 | inactive: -0.025 | – | – | inactive: -0.045 | – | – | – | inactive: 0.073 | – | – | – | – | inactive: 0.011 | inactive: -0.026 | inactive: 0.091 | inactive: -0.081 | – | inactive: -0.1
7 | USP27X (UniProt A6NNY8) | – | – | – | – | – | inactive: 0.05 | – | – | – | – | – | – | – | – | inactive: -0.139 | inactive: 0.028 | inactive: 0.012 | inactive: -0.197 | – | inactive: 0.01
8 | USP33 (UniProt Q8TEY7) | – | – | – | – | – | inactive: -0.155 | – | – | – | inactive: 0.009 | inactive: -0.109 | – | – | – | inactive: -0.025 | inactive: 0.016 | inactive: 0.097 | inactive: -0.07 | – | inactive: 0.005
9 | UTP23 (UniProt Q9BRU9) | – | – | – | – | – | inactive: 0.025 | inactive: 0.018 | inactive: -0.056 | inactive: -0.022 | – | inactive: -0.008 | inactive: -0.02 | inactive: 0.032 | inactive: 0.054 | inactive: -0.079 | inactive: 0.053 | inactive: 0.049 | inactive: -0.036 | inactive: 0.119 | inactive: -0.057
10 | USP38 (UniProt Q8NB14) | inactive: -0.079 | inactive: 0.137 | inactive: -0.125 | inactive: 0.007 | inactive: -0.068 | inactive: 0.006 | inactive: 0.198 | inactive: -0.132 | inactive: -0.073 | inactive: 0.042 | inactive: 0.018 | inactive: -0.093 | – | – | inactive: 0.01 | inactive: -0.031 | inactive: -0.047 | inactive: -0.095 | – | inactive: 0.061
11 | VCPKMT (UniProt Q9H867) | – | – | – | – | – | inactive: -0.011 | inactive: -0.071 | inactive: -0.131 | – | – | – | – | inactive: 0.157 | inactive: 0.164 | – | – | – | – | inactive: -0.246 | –

Reformatted in CSV form: part of the list above
Row,Target,log2 fold change [1],log2 fold change [2],log2 fold change [3],log2 fold change [4],log2 fold change [5],log2 fold change [6],log2 fold change [7],log2 fold change [8],log2 fold change [9],log2 fold change [10],log2 fold change [11],log2 fold change [12],log2 fold change [13],log2 fold change [14],log2 fold change [15],log2 fold change [16],log2 fold change [17],log2 fold change [18],log2 fold change [19],log2 fold change [20]
3,UNC119 (UniProt Q13432),–,–,–,–,–,inactive: 0.037,–,–,–,inactive: -0.058,inactive: 0.003,–,inactive: -0.041,inactive: 0.015,inactive: -0.059,inactive: 0.077,inactive: -0.001,inactive: -0.081,inactive: 0.183,inactive: 0.049
4,URGCP (UniProt Q8TCY9),inactive: -0.024,inactive: -0.075,inactive: 0.051,–,–,–,inactive: -0.01,inactive: 0.081,–,inactive: -0.05,inactive: 0.008,–,–,–,inactive: -0.038,inactive: 0.022,inactive: -0.07,active: -0.515,–,inactive: -0.042
